# Reference: PubChem BioAssay AID540275 (National Center for Advancing Translational Sciences (NCATS), 2011)
# The chains behind the UniProt entries cited, without tags or fusion partners.
# UniProt Q8NER1, whole entry, looked up: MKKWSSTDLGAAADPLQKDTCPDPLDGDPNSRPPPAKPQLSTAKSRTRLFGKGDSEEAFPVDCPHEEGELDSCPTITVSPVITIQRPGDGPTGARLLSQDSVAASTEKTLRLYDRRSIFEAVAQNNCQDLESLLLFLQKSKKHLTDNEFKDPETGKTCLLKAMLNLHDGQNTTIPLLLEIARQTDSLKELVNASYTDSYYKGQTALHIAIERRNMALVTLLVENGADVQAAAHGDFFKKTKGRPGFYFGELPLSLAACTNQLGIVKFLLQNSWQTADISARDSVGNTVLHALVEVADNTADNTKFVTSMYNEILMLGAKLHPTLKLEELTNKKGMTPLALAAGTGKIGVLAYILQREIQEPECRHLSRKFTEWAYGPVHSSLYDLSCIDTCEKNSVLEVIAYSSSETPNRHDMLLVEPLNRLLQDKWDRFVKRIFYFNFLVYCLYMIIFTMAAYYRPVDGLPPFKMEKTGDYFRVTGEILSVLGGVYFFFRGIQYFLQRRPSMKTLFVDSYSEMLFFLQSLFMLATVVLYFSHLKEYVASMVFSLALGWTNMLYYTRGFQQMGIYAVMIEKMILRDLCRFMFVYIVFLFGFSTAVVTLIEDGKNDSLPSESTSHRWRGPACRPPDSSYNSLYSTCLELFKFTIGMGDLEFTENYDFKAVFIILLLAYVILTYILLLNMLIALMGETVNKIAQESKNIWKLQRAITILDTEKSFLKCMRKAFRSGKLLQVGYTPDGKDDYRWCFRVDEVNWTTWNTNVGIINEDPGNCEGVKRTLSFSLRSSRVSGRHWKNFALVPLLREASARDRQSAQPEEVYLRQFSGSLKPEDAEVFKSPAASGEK
# Among all 320,000 compounds or so, about 620 (0.19%) were called active. Inconclusive results, whose numbers are uncertain, are shown with a selection of clear calls. No stated cut-off is given here; in the data, active means activation above about 80%; inconclusive means between about 30% and that limit; inactive means weaker than that.
# Target: Transient receptor potential cation channel subfamily V member 1 (Homo sapiens) (UniProt Q8NER1)
# Test: HTS Assay for Compounds that Act as Agonists of the Vanilloid Receptor 1; further: 0% is about no effect
# Settings: TRPV1-expressing cells, Fluo-8 calcium influx, agonist mode; at 8.33 µM, active compounds read high
# Procedure, shortened: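 Fluo-8 calcium influx in TRPV1-expressing cells, kinetic read (ex 480/em 520 nm). Compound added and read 3 min for agonist activity, followed by capsaicin at EC20 final and 2 min further read for enhancement.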
row,SMILES,activation
1,Cc1cccc(Oc2coc3cc(OC(=O)c4cccs4)ccc3c2=O)c1,inconclusive: 55.5%
2,CCc1ccc(OCCCC(=O)NCc2ccco2)cc1,inconclusive: 46.5%
3,Fc1cccc(Cl)c1CNn1cn[nH]c1=S,inactive: -3.36%
4,O=C(Nc1ccc(F)cc1F)c1ccc(S(=O)(=O)N2CCCCC2)cc1,inconclusive: 57.7%
5,O=C(N/N=C/c1ccncc1)c1ccc2c(c1)OCO2,inconclusive: 48.7%
6,COc1ccc(Cn2c(CCC(=O)Nc3ccc(C)cc3)nc3cccnc32)cc1,inconclusive: 64%
7,O=C(O)CCCCCN1C(=O)C(O)=C(C(=O)/C=C/c2ccccc2)C1c1ccc2c(c1)OCO2 (stereo not given),inactive: -1.4%
8,CC(C)(C)c1ccc(OC(=O)N2CCOCC2)cc1,inconclusive: 53.8%
9,CC(C)(C)C1CCc2onc(C(=O)Nc3cnn(Cc4ccc(F)cc4)c3)c2C1 (stereo not given),inactive: 24.2%
10,Cc1noc(C(=O)Nc2ccc(F)c(Cl)c2)c1Cl,inconclusive: 36%
11,CC1CCN(S(=O)(=O)c2ccc3c(c2)CC(C)N3C(=O)C2CCC2)CC1 (stereo not given),inconclusive: 53.6%
12,CCOc1cc(NC(=S)NCCCN(C)C)c(OCC)cc1NC(=O)c1cccs1,inactive: 0.646%
13,CCOc1ccc(CN(C)CC(=O)c2c(N)n(Cc3ccccc3)c(=O)n(CC)c2=O)cc1OC,inactive: -1.13%
14,Cc1ccnc(NC(=O)C2COc3ccccc3O2)c1 (stereo not given),inconclusive: 40.6%
15,COCCn1c(SCC(=O)N2CCCCC2)nc2c([nH]c3ccccc32)c1=O,inconclusive: 35.4%
16,Nc1nnc(SCC(=O)Nc2ccc(N3CCOCC3)cc2)s1,inactive: 0.627%
17,O=C(NCCc1ccc(Cl)cc1)Nc1ccc(Cl)cc1,inconclusive: 49.5%
18,C=CCN1C(c2ccccc2)=CS/C1=C(\C#N)c1nnc2n1CCCCC2,inactive: -1.44%
19,CC(=O)N(C(C)=O)c1ncnc2c1c(-c1ccc(Cl)cc1)nn2C(C)(C)C,inconclusive: 57.7%
20,CCOc1ccc(/C=C2/C(=O)N(c3ccc(OC)cc3)C(=S)N2CC(=O)OC)cc1OCC,inconclusive: 59.4%
21,Cc1ccccc1NS(=O)(=O)c1cc(C(=O)NCCSC2CCCCC2)ccc1C,inactive: -4.31%
22,Fc1ccccc1NC(=S)NCc1ccc2c(c1)OCO2,inconclusive: 31%
23,Cn1cc(Cl)c(C(=O)Nc2nc3ccccc3s2)n1,inconclusive: 44.4%
24,FC(F)(F)c1cc(-c2ccccc2)nc(NCC2CCCO2)n1 (stereo not given),inconclusive: 59%
25,O=C(Nc1nccs1)c1ccc(-c2ccc(F)c(Cl)c2)o1,inconclusive: 43.4%

# An excerpt of these results, as tab-separated lines.
row	SMILES	activation
1	Cc1cccc(Oc2coc3cc(OC(=O)c4cccs4)ccc3c2=O)c1	inconclusive: 55.5%
2	CCc1ccc(OCCCC(=O)NCc2ccco2)cc1	inconclusive: 46.5%
